Measured values published in US20140294994A1, “PHARMACEUTICAL COMPOSITION FOR ELIMINATION OF CANCER STEM CELLS” (priority 2011, published 2014).
Some results were stated once for a whole list of compounds, not compound by compound.

What follows are molecules tested on CL141 cells (assay: Side population analysis (Hoechst 33342, flow cytometry)).
Type: cell-based, human
Protocol: Single-cell suspensions of cells were detached from dishes with Trypsin-EDTA (Invitrogen) and suspended at 1×10^6 cells/mL in Hank's balanced salt solution (HBSS) supplemented with 3% fetal calf serum and 10 mM Hepes. […] After 90 minutes incubation, the cells were centrifuged immediately for 5 minutes at 300 g and 4° C. and resuspended in ice-cold HBSS. The cells were kept on ice to inhibit efflux of the Hoechst dye, and 1 μg/mL propidium iodide (BD) was added to discriminate dead cells. Finally, these cells were filtered through a 40 μm cell strainer (BD) to obtain single-suspension cells. Cell dual-wavelength analysis and purification were performed on a dual-laser FACS Vantage SE (BD). […] A 610 nm dichroic mirror short-pass (DMSP) was used to separate the emission wavelengths. PI-positive (dead) cells were excluded from the analysis.
For CN(C)CCCN1c2ccccc2Sc2ccccc21 [Promazine], the “reduction of the percentages of side population cells” value was > 50%. In the case of CN(C)CCCN1c2ccccc2Sc2ccc(C(F)(F)F)cc21 [Triflupromazine], the “reduction of the percentages of side population cells” value is reported as > 50%. For CN1CCN(CCCN2c3ccccc3Sc3ccc(C(F)(F)F)cc32)CC1 [Trifluoperazine], the “reduction of the percentages of side population cells” value was > 50%.
